Measured values published in PMC11790007.
No constants are given. Whether binding was seen depends on the method and setting. Binding seen in cells or lysates may run through a third protein. Some binding calls cover weakened binding; strength is not graded here.

The chains behind the UniProt entries cited, without tags or fusion partners.
UniProt Q13619: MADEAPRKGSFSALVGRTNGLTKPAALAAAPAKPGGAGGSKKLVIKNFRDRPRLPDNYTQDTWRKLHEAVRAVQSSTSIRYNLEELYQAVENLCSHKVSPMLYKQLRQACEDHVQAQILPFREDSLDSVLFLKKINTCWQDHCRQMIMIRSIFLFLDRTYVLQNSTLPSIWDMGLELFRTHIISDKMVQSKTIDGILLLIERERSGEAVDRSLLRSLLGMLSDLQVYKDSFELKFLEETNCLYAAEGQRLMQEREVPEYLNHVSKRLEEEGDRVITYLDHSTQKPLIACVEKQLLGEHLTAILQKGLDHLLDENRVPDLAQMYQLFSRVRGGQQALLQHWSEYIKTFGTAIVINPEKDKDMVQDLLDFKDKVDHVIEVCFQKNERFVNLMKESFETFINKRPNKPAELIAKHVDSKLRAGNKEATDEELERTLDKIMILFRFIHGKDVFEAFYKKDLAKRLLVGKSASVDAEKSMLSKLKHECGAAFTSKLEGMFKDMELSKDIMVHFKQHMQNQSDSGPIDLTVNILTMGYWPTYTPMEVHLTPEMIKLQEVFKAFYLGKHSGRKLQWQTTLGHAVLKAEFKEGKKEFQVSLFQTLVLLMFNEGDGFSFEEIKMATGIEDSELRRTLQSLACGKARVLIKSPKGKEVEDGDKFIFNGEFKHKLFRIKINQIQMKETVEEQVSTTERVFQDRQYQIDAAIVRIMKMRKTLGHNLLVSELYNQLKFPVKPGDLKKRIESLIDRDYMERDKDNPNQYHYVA

Biological target: T1, chromobox protein homolog 4 (CBX4) (human (endogenous in J-Lat 10.6)) (UniProt O00257)
T1 sequence: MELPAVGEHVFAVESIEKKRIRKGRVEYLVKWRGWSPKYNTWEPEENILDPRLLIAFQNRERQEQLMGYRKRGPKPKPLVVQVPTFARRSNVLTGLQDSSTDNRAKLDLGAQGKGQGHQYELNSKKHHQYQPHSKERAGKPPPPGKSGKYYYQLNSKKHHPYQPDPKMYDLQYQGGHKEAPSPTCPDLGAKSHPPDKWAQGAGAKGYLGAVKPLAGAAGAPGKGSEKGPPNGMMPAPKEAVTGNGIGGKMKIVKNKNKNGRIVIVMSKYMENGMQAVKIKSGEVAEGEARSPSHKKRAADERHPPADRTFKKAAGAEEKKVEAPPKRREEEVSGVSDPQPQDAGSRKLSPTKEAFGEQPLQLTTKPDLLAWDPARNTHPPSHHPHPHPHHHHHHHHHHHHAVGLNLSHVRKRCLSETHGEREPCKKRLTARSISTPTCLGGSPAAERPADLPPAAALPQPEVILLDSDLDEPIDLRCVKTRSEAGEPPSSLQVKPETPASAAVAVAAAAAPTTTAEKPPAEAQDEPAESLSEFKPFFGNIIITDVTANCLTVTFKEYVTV
Assay: co-IP; endogenous proteins; cells treated with 20 µM TA for 24 h, 4 µM MG132 added 16 h before collection; lysis in RIPA buffer (150 mM NaCl, 50 mM Tris-HCl pH 7.5, 1 mM EDTA, 1% NP40, 0.5% Triton X-100); immunoprecipitated with anti-CBX4 on Protein A + G magnetic beads at 4°C, western blot with anti-CBX4 and anti-CUL4A

binding: binds
Substance: cullin 4A (CUL4A) (from UniProt Q13619 1-759)
